No constants are given. Whether binding was seen depends on the method and setting.
Target: CD44, endogenous on MDA-MB-468 breast cancer cells (human (endogenous in MDA-MB-468)) (UniProt P16070)
Test: flow cytometry on cells; MDA-MB-468 cells, 4 °C, 1 hr, PBS pH 7.4, 0.1% sodium azide, 1% BSA; indirect (FITC-rabbit anti-human Cpn10) or direct (488-CP7) detection; only the binder purified

Amino acid sequences for entries named in this document (tags omitted). Residues count along the entry.
UniProt P16070, residues 21-742: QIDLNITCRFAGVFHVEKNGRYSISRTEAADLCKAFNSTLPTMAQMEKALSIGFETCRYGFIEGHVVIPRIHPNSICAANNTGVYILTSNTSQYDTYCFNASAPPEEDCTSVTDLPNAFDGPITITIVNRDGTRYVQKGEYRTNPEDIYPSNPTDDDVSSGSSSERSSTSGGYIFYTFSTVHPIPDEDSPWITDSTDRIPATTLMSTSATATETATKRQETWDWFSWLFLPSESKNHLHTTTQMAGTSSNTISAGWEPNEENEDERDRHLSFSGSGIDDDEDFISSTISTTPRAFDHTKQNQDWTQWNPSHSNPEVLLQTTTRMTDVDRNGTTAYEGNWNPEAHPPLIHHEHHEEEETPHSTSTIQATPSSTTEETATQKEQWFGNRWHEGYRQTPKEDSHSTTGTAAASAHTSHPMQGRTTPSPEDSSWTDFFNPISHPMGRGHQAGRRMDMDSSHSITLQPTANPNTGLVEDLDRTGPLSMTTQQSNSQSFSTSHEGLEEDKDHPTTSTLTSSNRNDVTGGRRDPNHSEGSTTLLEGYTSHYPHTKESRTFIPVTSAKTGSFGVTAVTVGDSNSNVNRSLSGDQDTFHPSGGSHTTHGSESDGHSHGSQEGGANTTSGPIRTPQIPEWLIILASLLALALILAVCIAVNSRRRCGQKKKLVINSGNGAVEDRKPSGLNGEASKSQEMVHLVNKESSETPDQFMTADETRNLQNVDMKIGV
UniProt P61604: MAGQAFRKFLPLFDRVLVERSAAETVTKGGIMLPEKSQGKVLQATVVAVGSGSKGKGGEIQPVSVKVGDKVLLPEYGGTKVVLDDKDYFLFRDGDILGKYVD

binding: no binding
Substance: human Chaperonin 10 (hCpn10), wild type (from UniProt P61604 1-102)

— PMC5118791
